SMILES strings stand for the structures. The list shows a part of the results. No stated cut-off is given here; in the data, active = 150% or more and inactive = the rest. Most values come without repeats; read them as rough.

The test system of the assay is Staphylococcus aureus JE2-lux inside RAW 264.7 macrophages. Kind of assay: intracellular bacterial bioluminescence relative to DMSO vehicle; higher = higher intracellular bacterial metabolic activity. The note with it: 10 µM; treatment time 4 h; gentamicin 50 µg/ml.
For `O=C(/C=C\c1ccc([N+](=O)[O-])cc1)NC1CC(=O)N(c2ccccc2)C1` (centres undefined), the intracellular bacterial bioluminescence was inactive: 71.8%.
In the case of `O=C(CN1C(=O)/C(=C2\NC(=S)NC2=O)c2ccccc21)Nc1cccc(Cl)c1` it was inactive: 92.9%; in that of `COc1cccc(Cn2c(C3CC3)nc3ccc(NC(=O)c4ccncc4)cc3c2=O)c1`, inactive: 93.4%; in that of `O=C(CC1CCN(C(=O)c2cc3ccccc3[nH]2)CC1)NCc1ccc2c(c1)OCO2`, inactive: 64%.
Turning to `CCc1ccc2c(c1)[C@H]1OCC[C@H]1C(c1ccc(C(=O)O)cc1)N2` (some centres undefined), the intracellular bacterial bioluminescence was inactive: 115%.
In the case of `COc1ccc(Cl)cc1Nc1ncnc2c1c(C)c(C)n2-c1ccccc1` it was inactive: 97.3%; in that of `NC(=O)Cn1c2ccc([N+](=O)[O-])cc2c2cc([N+](=O)[O-])ccc21`, inactive: 118%; in that of `COc1cc(OC)c(NC(=O)N2CCC(n3cnc4cccnc43)CC2)cc1Cl`, inactive: 84.4%.
For `CC(=O)N1CCN(C2=NC(=O)/C(=C\c3cccc([N+](=O)[O-])c3)S2)CC1`, the intracellular bacterial bioluminescence is inactive: 85.2%.
In the case of `O=S(=O)(Nc1cccc(-c2ccc(N3CCCC3)nn2)c1)c1cccnc1`, the intracellular bacterial bioluminescence was inactive: 124%.
Take `CCCCN(C)c1cc(C(=O)O)c2cc(NC(=O)c3cccc(C)c3)ccc2n1`: the intracellular bacterial bioluminescence was inactive: 144%.
In the case of `O=C(NCc1nnnn1-c1ccc(Cl)cc1)c1ccc(-c2ccccc2)cc1` it was inactive: 72%; in that of `CS(=O)(=O)c1ccc(CC(=O)Nc2ncc(S(=O)(=O)c3ccc([N+](=O)[O-])cc3)s2)cc1`, inactive: 66.5%; in that of `C=CCn1c(Sc2nc(C)cs2)nc2c1c(=O)[nH]c(=O)n2C`, inactive: 96.7%.
In the case of `O=C(NCCS(=O)(=O)N1CCCCC1)c1ccccc1` it was inactive: 94.7%; in that of `Cc1ccc(C(=O)Nc2c(C#N)[nH]c3sc4c(c23)CCCC4)cc1`, inactive: 98.5%; in that of `CC(Sc1nnc2c(n1)[nH]c1ccccc12)C(=O)NC(c1ccccc1)c1ccccc1` (centres undefined), inactive: 83%.
In the case of `N#Cc1c(NC(=O)CS(=O)(=O)c2ccccc2)sc2c1CCCCC2` it was inactive: 118%; in that of `O=C(CSc1ncccn1)Nc1ccc(C(=O)N2CCOCC2)cc1`, inactive: 111%; in that of `Cc1ccc2cc(C#N)c(NCCCNC(=O)NC3CCCCC3)nc2c1`, inactive: 63.9%.
On to `N#Cc1c(NC(=O)CSc2nnc3c(n2)-c2cccc4cccc-3c24)sc2c1CCCC2`, for which the intracellular bacterial bioluminescence is inactive: 48.1%.
The result for `O=C(CCc1nnc2n(Cc3ccc(Cl)cc3)c(=O)c3ccccc3n12)NCc1cccnc1` reads inactive: 95.7%; that for `CCOc1ccc(-n2c(-c3ccccc3)cn3c4c(=O)n(CC(N)=O)c(=O)n(C)c4nc23)cc1`, inactive: 112%; that for `Cc1cc(C)nc(SCC(=O)Nc2ncc(Cc3cccc4ccccc34)s2)n1`, inactive: 43.9%.
Consider `CCOC(=O)c1ccccc1NC(=O)CSc1nc(=O)n(CCN(CC)CC)c2c1CCCC2`, for which the intracellular bacterial bioluminescence is inactive: 113%.
The result for `COc1cccc(C(=O)N2CC(=O)Nc3ccc(Cl)cc3C2c2ccc(F)cc2)c1OC` (centres undefined) reads inactive: 104%.
Regarding `Cc1cn2c3c(=O)n(C/C=C/c4ccccc4)c(=O)n(C)c3nc2n1-c1ccccc1F`, the intracellular bacterial bioluminescence was inactive: 118%.
Regarding `Cc1ccc(Cc2nnc(-c3cccc(NS(=O)(=O)c4ccc(N5CCCC5=O)cc4)c3)o2)cc1`, the intracellular bacterial bioluminescence is inactive: 80.9%.
In the case of `COc1ccc(CNC(=O)Cn2nnc(-c3ccc(Cl)cc3)n2)cc1` it was inactive: 66.1%; in that of `O=C(CCCN1C(=O)c2cccc3cccc(c23)C1=O)Nc1ccon1`, inactive: 28.7%.
The result for `Cc1cc(C)c2cc(CN(C(=O)c3cnccn3)C3CCCC3)c(Cl)nc2c1` reads inactive: 110%; that for `O=C(CSc1ncc(CO)n1Cc1ccccc1)Nc1nccs1`, inactive: 105%.
The result for `O=C1c2cccc3cccc(c23)C(=O)N1CCc1ccc(S(=O)(=O)N2CCCCC2)cc1` reads inactive: 110%; that for `CCn1c2ccccc2n2c(=O)n(CC(=O)NC(C)(C)C)nc12`, inactive: 97.7%.
On to `COc1ccc(CNc2nc3c(S(=O)(=O)c4ccc(F)cc4)nnn3c3ccccc23)cc1`, for which the intracellular bacterial bioluminescence was inactive: 136%.
The result for `O=C(C1=C(O)C(=O)N(CCCn2ccnc2)C1c1ccccn1)c1ccccc1` (centres undefined) reads inactive: 142%.
`Nc1nc(SCCCC(=O)NC2CCCCC2)nc2sc3c(c12)CCCC3`: the intracellular bacterial bioluminescence is inactive: 130%.
The result for `Oc1ccc(Nc2nc(-c3ccccc3)c3cc(Cl)ccc3n2)cc1` reads inactive: 106%.
Take `COC(=O)Cn1/c(=N/C(=O)CSCC(=O)Nc2cc(C)on2)sc2cc(OC)ccc21`: the intracellular bacterial bioluminescence was inactive: 50.2%.
In the case of `Cn1ncc2c1CCc1sc(NC(=O)COCC3CCCCO3)nc1-2` (centres undefined) it was inactive: 105%.
Take `COc1cccc(NC(=O)NNc2nc3c(-c4ccccc4)nnn3c3ccccc23)c1`: the intracellular bacterial bioluminescence was inactive: 110%.
The result for `Cc1cccc2cc(CN(Cc3ccc4c(c3)OCO4)C(=O)NCc3ccccc3)c3nnnn3c12` reads inactive: 118%; that for `COc1ccc(-c2cnnn2-c2ccc(NC(=O)c3cc4ccccc4oc3=O)cc2)cc1OC`, inactive: 68.7%; that for `COC(=O)c1ccc(CSc2ncnc3c2nnn3-c2ccc(OC)cc2)o1`, inactive: 115%.
In the case of `O=C(CSc1nnc2c(n1)[nH]c1ccc(F)cc12)NC1CCCCCC1` it was inactive: 64%.
Take `O=C(CN1C(=O)CCC1=O)Nc1ncc(S(=O)(=O)c2ccc([N+](=O)[O-])cc2)s1`: the intracellular bacterial bioluminescence was inactive: 73.1%.
The result for `Cn1c(=O)n(CC(=O)N2CCCC(c3ccccc3)C2)c2cccnc21` (centres undefined) reads inactive: 48%; that for `O=C(c1c(-c2ccccc2)nnc2ccccc12)N1CC=C(c2ccccc2)CC1`, inactive: 70.7%.
In the case of `O=C(CSc1nc2ccccc2o1)N1CCc2ccccc21` it was inactive: 117%; in that of `CCOC(=O)c1ccccc1NC(=O)COc1cc(=O)n(-c2ccccc2Cl)nc1C(=O)OCC`, inactive: 61.1%.
The result for `Cc1nc(OCC(=O)NCc2cccnc2)c2c(C)c(C)oc2n1` reads inactive: 122%; that for `CCN(CC)c1nc(N2CCOCC2)c2cnn(C)c2n1`, inactive: 95.4%; that for `O=S(=O)(c1ccc(-c2noc(-c3cc4cc(Cl)ccc4[nH]3)n2)cc1)N1CCCC1`, inactive: 91%.
In the case of `O=C(NCCc1ccc(Cl)cc1)C(=O)Nc1ccc(F)c(F)c1`, the intracellular bacterial bioluminescence was inactive: 83.7%.
In the case of `COc1cc(NC(=O)c2nn(C)c(C(F)(F)F)c2Cl)cc(OC)c1` it was inactive: 105%.
As to `O=C1Cc2cc(NC(=O)c3ccccc3Br)ccc2N1`, the intracellular bacterial bioluminescence is inactive: 116%.
In the case of `CCC(SC1=Nc2ccccc2C2=NC(C(C)C)C(=O)N12)C(=O)Nc1ccc(OC)cc1OC` (centres undefined) it was inactive: 114%.
The result for `NC(=O)CSc1ncnc2c1oc1ccccc12` reads inactive: 117%; that for `Cc1ccc(Cl)cc1NC(=O)C(C)Sc1nc2ncccc2o1` (centres undefined), inactive: 100%.
In the case of `Cc1oc(-c2ccno2)cc1S(=O)(=O)Nc1ccc2c(c1)OCO2` it was inactive: 79.2%.
Regarding `CC1(C)CC(=O)C2=C(C1)Nc1[nH]c(=O)[nH]c(=O)c1C2c1ccc(-c2cccc(C(F)(F)F)c2)o1` (centres undefined), the intracellular bacterial bioluminescence was inactive: 99.5%.
For `COc1cc2cc3c(N)c(C(=O)N4c5ccccc5CC4C)sc3nc2cc1OC` (centres undefined), the intracellular bacterial bioluminescence is inactive: 49.9%.
In the case of `COCCn1c2ccccc2n2c(=O)n(CC(=O)NC3CCCC3)nc12` it was inactive: 123%; in that of `CC1(C)CC(=O)C2=C(C1)Nc1nc(SCc3ccccc3F)[nH]c(=O)c1C2c1ccccn1` (centres undefined), inactive: 90.2%.
In the case of `COc1ccc2c(O)c(C(=O)NCCc3ccccc3)cnc2c1`, the intracellular bacterial bioluminescence is inactive: 91.7%.
The result for `CC(Oc1ccccc1)C(=O)N1CCN=C1SCc1cccnc1` (centres undefined) reads inactive: 91.2%.
Regarding `Cc1cccc(-c2nc(N)n(C(=O)c3ccco3)n2)c1`, the intracellular bacterial bioluminescence is inactive: 129%.
Regarding `Cc1cccc(NC(=O)CSc2nc3c(c(-c4ccco4)c2C#N)CCCC3)c1`, the intracellular bacterial bioluminescence was inactive: 143%.
In the case of `CCOc1ccc(N2CC(NC(=O)Nc3ncccc3C)CC2=O)cc1` (centres undefined) it was inactive: 94%; in that of `COc1ccc2ncc(C(=O)NC3CCCC3)c(O)c2c1`, inactive: 100%.
In the case of `Cc1cc(Br)ccc1NS(=O)(=O)c1c[nH]c(=O)[nH]c1=O` it was inactive: 112%.
The result for `CC(=O)c1ccc(C(=O)N(Cc2ccncc2)c2nc3c(C)ccc(Cl)c3s2)cc1` reads inactive: 96.7%; that for `Cc1ccc(C)c(NC(=O)CS(=O)(=O)c2cn(C)c3ccccc23)c1`, inactive: 87.4%.
For `O=C(COc1ncnc2ccccc12)Nc1cccc(-c2csnn2)c1`, the intracellular bacterial bioluminescence was inactive: 4.53%.
In the case of `CC(CNC(=O)Cn1c(-c2cccs2)cc2cccnc21)n1cncn1` (centres undefined) it was inactive: 78%; in that of `N#CC1=C(S)N(c2ccc(F)cc2)C(c2ccco2)NC1=O` (centres undefined), inactive: 96.7%.
In the case of `Cc1ccc2cc(CCNC(=O)C3CC3)c(=O)[nH]c2c1C` it was inactive: 83.7%; in that of `O=c1[nH]c2ccccc2n1CCCSc1cccc2cccnc12`, inactive: 11.4%; in that of `Cc1ccccc1NC(=O)NC1CC2CCC(C1)N2Cc1ccccc1` (centres undefined), inactive: 73%.
The result for `Brc1ccc2[nH]c3nc(SCc4nc5ccccc5[nH]4)nnc3c2c1` reads inactive: 65.9%; that for `Cc1ccc(C2C(C#N)=C(SCC(=O)N3c4ccccc4CC3C)NC3=C2C(=O)CCC3)o1` (centres undefined), inactive: 37%; that for `COC(=O)c1ccc2c(c1)C1CC(C)(O2)N(c2ccc(OC)c(OC)c2)C(=O)N1` (centres undefined), inactive: 79.2%.
In the case of `COc1ccc(OC)c(NS(=O)(=O)c2ccc3[nH]c(=O)[nH]c3c2)c1`, the intracellular bacterial bioluminescence is inactive: 112%.
In the case of `CCN1CCN(c2nc(N3CCN(C(=O)c4ccco4)CC3)nc3c2cnn3C)CC1` it was inactive: 130%.
In the case of `Cc1ccc(C(=O)Nc2ccccc2-c2nc3ccccc3[nH]c2=O)cc1[N+](=O)[O-]` it was inactive: 60.2%; in that of `COc1ccc(OC)c2[nH]c(=O)c(CCNC(=O)c3ccc(Cl)c([N+](=O)[O-])c3)cc12`, inactive: 97%.
In the case of `CCOC(=O)CCc1c(C)c(C#N)c2nc3ccccc3n2c1-n1cnc2ccccc21` it was inactive: 101%; in that of `O=C(NC1CCN(Cc2ccccc2)CC1)c1cnc(N2CCOCC2)c2ccccc12`, inactive: 118%.
Turning to `CCOc1ccc2c(c1)cc(C1OCCO1)c1nn(C)c(=O)n12`, the intracellular bacterial bioluminescence was inactive: 95%.

Values taken from the supplement of paper PMC12578635.
